These are yes or no findings as the source states them, for the method shown. Some binding calls cover weakened binding; strength is not graded here.

Test [1] concerns the target endogenous TDP-43 in human blood samples (EDTA plasma; platelet fractions) (human) (UniProt Q13148). Description: SIMOA sandwich immunoassay, capture antibody on paramagnetic beads.
Test [2] concerns the target recombinant full length TDP-43 (SEQ ID NO: 1, FL TDP-43) (human) (UniProt Q13148). The test is described as follows: SIMOA sandwich immunoassay: ACI-7071-809F12-Ab1-rec2 on paramagnetic beads as capture, biotinylated ACI-7071-4665-B5-R3B-Ab2 as detector, human TDP-43 calibrator titrated.

B1: ACI-7071-809F12-Ab1-rec2 (as described in WO2020234473) (antibody, V domains shown)
VH: QVQLKESGPGLVAPSQSLSITCTVSGFSLNRNGVQWVRQPPGKGLEWLGVIWPGGSTNCNSALMSRLSISKDNSKSQVFLKMNSLHTDDTGIYYCARVGGNYVWDYNNYAWGQGTLVTVSA
VL: DVLMTQTPLSLPVSLGDQASISCRSSQNIVHSIGNTYLEWYLQKPGQSPKLLIYKVSNRFSGVPDRFSGSGSGTDFTLKISRVEAEDLGVYYCFQGSHVPYTFGGGTKLEIR
For B1, the binding result in test [1] and in test [2] was “binds” each time.

Values taken from US20260043816A1.
